42 sequences from paper PMC7819943, “Rice protein-binding microarrays: a tool to detect cis-acting elements near promoter regions in rice” can be followed below.

The chains behind the UniProt entries cited, without tags or fusion partners.
UniProt Q0JBA9, entry or part of it: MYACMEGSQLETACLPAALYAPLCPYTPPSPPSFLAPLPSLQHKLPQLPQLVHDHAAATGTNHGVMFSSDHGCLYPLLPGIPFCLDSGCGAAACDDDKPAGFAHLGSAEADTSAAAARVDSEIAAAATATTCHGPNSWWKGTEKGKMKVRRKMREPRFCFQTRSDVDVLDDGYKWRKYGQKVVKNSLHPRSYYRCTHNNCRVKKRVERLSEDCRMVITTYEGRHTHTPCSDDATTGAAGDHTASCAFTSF

Some of the results follow.

The target of this experiment is OsWRKY34 (Oryza sativa, UniProt Q0JBA9 1-250). The experiment is described as follows: protein-binding microarray (RPBM); PBS, 2% BSA, 51.3 ng/ul salmon testes DNA, 50 uM zinc acetate, 200 nM TF, 25 C, 1 h; high values mean tight binding. As to conditions: protein: recombinant; tags: N-terminal polyhistidine and DsRed monomer fusion (pET32a); label: CyDye5-dUTP incorporated in the synthesized complementary strand; 3' TTTTT single-stranded linker to array surface; dsDNA, one strand shown. A digest of the protocol: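 Polyhistidine-tagged DsRed fusions of transcription factors, joined at the N-terminus, were expressed in E. coli BL21-CodonPlus and isolated on Ni–NTA. They were incubated at 200 nM for 1 h at 25 °C on a custom Agilent array, double-stranded and BSA-blocked, in PBS with 2% BSA, salmon testes DNA and 50 µM zinc acetate. The binding signal is per-feature fluorescence intensity (arbitrary units) read on an Axon 4000B scanner after washing.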
As to “TCACTATAACACGCACCACTCTCTAGCTACCTCGATCACCCGGAGTCACCTAGTGCAG”, the binding signal was 9260 fluorescence intensity (a.u.).
To “TTCCATTGCCGGCCCATTTCGCACCTGACGCTTTTTTCACCGGAGTCACCTAGTGCAG” belongs 10400 fluorescence intensity (a.u.); to “AGATATTTGGTTTGGTATGTACTCTAACATTGTAAGCGACCGGAGTCACCTAGTGCAG”, 8580 fluorescence intensity (a.u.).
As to “GGCCCACCGGTCGGTTTCCTCACGCGTCAAACACCGGTTCCGGAGTCACCTAGTGCAG”, the binding signal is 10000 fluorescence intensity (a.u.).
To “GCACTTGGTTTTTATAGCTCTGTTTGTTTTCAAGCCTCTACGGAGTCACCTAGTGCAG” belongs 12300 fluorescence intensity (a.u.); to “CTTTGGATCTCAACTCGGCCTTAATTAGTAGCGCAGATACCGGAGTCACCTAGTGCAG”, 8160 fluorescence intensity (a.u.).
To “CGTGCCATCGTTGCCTTCCCGCTGTTCTCGCCGTCGCCGTCGGAGTCACCTAGTGCAG” belongs 9510 fluorescence intensity (a.u.); to “CTATTTGTGTCTTGTGTACTTCAACGTCTTCCTCTTATGACGGAGTCACCTAGTGCAG”, 10800 fluorescence intensity (a.u.).
For the sequence “TTCCCTCACATCCGTGCCCTCTCCTTCTCTCTCTGTGTCTCGGAGTCACCTAGTGCAG”, the binding signal was 8110 fluorescence intensity (a.u.).
As for “CACTAGTCATAGACTCTTTTCTTAGCCAAAGTTTACCACACGGAGTCACCTAGTGCAG”, the figure is 8730 fluorescence intensity (a.u.); as for “TTTTTGTTTTATTCCCAATCCATCTCTCATTGTCAAGAGACGGAGTCACCTAGTGCAG”, 8450 fluorescence intensity (a.u.).
“TTTTATGCCGATATACCATGGCTGTGTGACCATATCTCAACGGAGTCACCTAGTGCAG”: the binding signal was 8890 fluorescence intensity (a.u.).
To “TCTATCTTGTGTTGACTCTGTTAGTTTGCAACTTTTCATACGGAGTCACCTAGTGCAG” belongs 10400 fluorescence intensity (a.u.); to “GCCGCATGGTGGTGCTGGTTGGGGTGGTGGTGGTGGCGGCCGGAGTCACCTAGTGCAG”, 14800 fluorescence intensity (a.u.).
With “ATAGCGCTTTCGTCTCTCCTGACAGTATCTAGAGATACCGCGGAGTCACCTAGTGCAG”, the binding signal is 8650 fluorescence intensity (a.u.).
Take “GGACCTTCGGTGTACTTTTTTCTTAGTTGCGATCCAGTTCCGGAGTCACCTAGTGCAG”: the binding signal was 9540 fluorescence intensity (a.u.).
To “GCGGTGGAGGCGGTGGCGGTGGTGGCGGTGGTGGAGGATGCGGAGTCACCTAGTGCAG” belongs 21200 fluorescence intensity (a.u.); to “AAGAGTTTCTACCTTTGATGTTTGCACTCAGACTGTCCTTCGGAGTCACCTAGTGCAG”, 11200 fluorescence intensity (a.u.); to “TGAGGGTATTATAGACATTTCTACTTCTCTTGTACATATTCGGAGTCACCTAGTGCAG”, 10500 fluorescence intensity (a.u.).
For “ATTAGTCATCGTCTCTCTCGTACGTGACACCGCCGCTATGCGGAGTCACCTAGTGCAG”, the binding signal is 8910 fluorescence intensity (a.u.).
As for “TATTTTTCTCTGCCACTTTTGTTTCGCGGCCTGATTAGCTCGGAGTCACCTAGTGCAG”, the figure is 11000 fluorescence intensity (a.u.).
As for “CACCATTTTCTTGCTCCTCATCTTCTTCACCACAACCATACGGAGTCACCTAGTGCAG”, the figure is 8500 fluorescence intensity (a.u.).
To “ACGCGCACAACAACACACACAACCCAACCCAACCCCAGCGCGGAGTCACCTAGTGCAG” belongs 8130 fluorescence intensity (a.u.).
For the sequence “AGGACACCACCGGCCTTTGTTGTTTAACTGACAGTATTAACGGAGTCACCTAGTGCAG”, the binding signal was 8150 fluorescence intensity (a.u.).
As for “CGTCACGGGTACAAAATCGTCCCCATATCCACACTCACACCGGAGTCACCTAGTGCAG”, the figure is 8290 fluorescence intensity (a.u.); as for “CGACCGCCATTGCCTCGCCGTCTTCCGCCCCGCCCCGCCCCGGAGTCACCTAGTGCAG”, 14800 fluorescence intensity (a.u.); as for “GGACGGACGGGATAACACCCATGGGCCCACTTGTCATTGACGGAGTCACCTAGTGCAG”, 8850 fluorescence intensity (a.u.).
Regarding “ATTCACATTTGAACACTTAATACGGTCACCCAAATGCTTACGGAGTCACCTAGTGCAG”, the binding signal is 8030 fluorescence intensity (a.u.).
To “GTGTGCTAATTAATTGTTCATGATCTCAAACCCTTTATCTCGGAGTCACCTAGTGCAG” belongs 11300 fluorescence intensity (a.u.); to “TTTTCTATGGTTAGTTCTTGTGGGTTCCTAAGTGTGAAAACGGAGTCACCTAGTGCAG”, 10900 fluorescence intensity (a.u.).
Take “CCACCACATCCCAGCCGCCACATCAGACGCAGAAAATCGCCGGAGTCACCTAGTGCAG”: the binding signal is 8520 fluorescence intensity (a.u.).
Turning to “ACCTCTTCCATTTCCATCTTTCTGTTTCTGATTCATTAAACGGAGTCACCTAGTGCAG”, the binding signal is 8070 fluorescence intensity (a.u.).
For “GCACAATTTTTCAGAACTATTCTGTTCCGCTTCAGTTTTTCGGAGTCACCTAGTGCAG”, the binding signal is 9620 fluorescence intensity (a.u.).
To “GCACTAATCCCAGTGCTCTGCTGCCGCGCTTCGTCGCCGCCGGAGTCACCTAGTGCAG” belongs 8560 fluorescence intensity (a.u.); to “GGCGTCTACTTTGCCATTGCAATTCCCATCTGCGAGAAAACGGAGTCACCTAGTGCAG”, 12900 fluorescence intensity (a.u.).
To “GACGAAATTCCGGCCGACGCGCGACCCCATACATCTTGGACGGAGTCACCTAGTGCAG” belongs 9510 fluorescence intensity (a.u.); to “TCTACACCTATTGTGATGTGGAATAATTCTCCTCAAACCTCGGAGTCACCTAGTGCAG”, 8080 fluorescence intensity (a.u.).
“TCATCTTCGATACTGATATTACCAAATTTAGTCGTTAACACGGAGTCACCTAGTGCAG”: the binding signal is 8100 fluorescence intensity (a.u.).
As for “ACGGTAGGAGCTGCAGCGGTCGGGGTGGGAGCAGGGGTCGCGGAGTCACCTAGTGCAG”, the figure is 9690 fluorescence intensity (a.u.); as for “TAATCATGCTGCCGTCTCTGAATTTGCTGTGCTGCCGTCTCGGAGTCACCTAGTGCAG”, 8740 fluorescence intensity (a.u.); as for “CGTGCCACCTCTTGTCCCAGATCCATCCCAGATTTTCAAACGGAGTCACCTAGTGCAG”, 9560 fluorescence intensity (a.u.).
To “CCCACGACTCCCCACGCAATCTCACTGCCACTGCATCTTCCGGAGTCACCTAGTGCAG” belongs 8170 fluorescence intensity (a.u.).
